Some of the results follow.
Compound: CC1Cc2ccccc2N1C(=O)C1CCCN(C1)C(=O)CCl (mixture of isomers) [TRIM25 ligand 11 (diastereomer mixture)]
Assay: probe-labelled cysteine peptide fold change vs DMSO (competition) (log2 fold change); higher = less target engagement (more negative = stronger competition)
Conditions: THP-1, incubation time: 4 h
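Note: competitive chemoproteomic profiling in live THP-1 cells with an iodoacetamide desthiobiotin (IA-DTB) probe, comparing probe-labelled peptide intensities in compound-treated cells against DMSO-treated controls.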

Amino acid sequences for entries named in this document (tags omitted). A change or cut given only in a name is not applied to a line headed by its entry.
UniProt Q7LBC6: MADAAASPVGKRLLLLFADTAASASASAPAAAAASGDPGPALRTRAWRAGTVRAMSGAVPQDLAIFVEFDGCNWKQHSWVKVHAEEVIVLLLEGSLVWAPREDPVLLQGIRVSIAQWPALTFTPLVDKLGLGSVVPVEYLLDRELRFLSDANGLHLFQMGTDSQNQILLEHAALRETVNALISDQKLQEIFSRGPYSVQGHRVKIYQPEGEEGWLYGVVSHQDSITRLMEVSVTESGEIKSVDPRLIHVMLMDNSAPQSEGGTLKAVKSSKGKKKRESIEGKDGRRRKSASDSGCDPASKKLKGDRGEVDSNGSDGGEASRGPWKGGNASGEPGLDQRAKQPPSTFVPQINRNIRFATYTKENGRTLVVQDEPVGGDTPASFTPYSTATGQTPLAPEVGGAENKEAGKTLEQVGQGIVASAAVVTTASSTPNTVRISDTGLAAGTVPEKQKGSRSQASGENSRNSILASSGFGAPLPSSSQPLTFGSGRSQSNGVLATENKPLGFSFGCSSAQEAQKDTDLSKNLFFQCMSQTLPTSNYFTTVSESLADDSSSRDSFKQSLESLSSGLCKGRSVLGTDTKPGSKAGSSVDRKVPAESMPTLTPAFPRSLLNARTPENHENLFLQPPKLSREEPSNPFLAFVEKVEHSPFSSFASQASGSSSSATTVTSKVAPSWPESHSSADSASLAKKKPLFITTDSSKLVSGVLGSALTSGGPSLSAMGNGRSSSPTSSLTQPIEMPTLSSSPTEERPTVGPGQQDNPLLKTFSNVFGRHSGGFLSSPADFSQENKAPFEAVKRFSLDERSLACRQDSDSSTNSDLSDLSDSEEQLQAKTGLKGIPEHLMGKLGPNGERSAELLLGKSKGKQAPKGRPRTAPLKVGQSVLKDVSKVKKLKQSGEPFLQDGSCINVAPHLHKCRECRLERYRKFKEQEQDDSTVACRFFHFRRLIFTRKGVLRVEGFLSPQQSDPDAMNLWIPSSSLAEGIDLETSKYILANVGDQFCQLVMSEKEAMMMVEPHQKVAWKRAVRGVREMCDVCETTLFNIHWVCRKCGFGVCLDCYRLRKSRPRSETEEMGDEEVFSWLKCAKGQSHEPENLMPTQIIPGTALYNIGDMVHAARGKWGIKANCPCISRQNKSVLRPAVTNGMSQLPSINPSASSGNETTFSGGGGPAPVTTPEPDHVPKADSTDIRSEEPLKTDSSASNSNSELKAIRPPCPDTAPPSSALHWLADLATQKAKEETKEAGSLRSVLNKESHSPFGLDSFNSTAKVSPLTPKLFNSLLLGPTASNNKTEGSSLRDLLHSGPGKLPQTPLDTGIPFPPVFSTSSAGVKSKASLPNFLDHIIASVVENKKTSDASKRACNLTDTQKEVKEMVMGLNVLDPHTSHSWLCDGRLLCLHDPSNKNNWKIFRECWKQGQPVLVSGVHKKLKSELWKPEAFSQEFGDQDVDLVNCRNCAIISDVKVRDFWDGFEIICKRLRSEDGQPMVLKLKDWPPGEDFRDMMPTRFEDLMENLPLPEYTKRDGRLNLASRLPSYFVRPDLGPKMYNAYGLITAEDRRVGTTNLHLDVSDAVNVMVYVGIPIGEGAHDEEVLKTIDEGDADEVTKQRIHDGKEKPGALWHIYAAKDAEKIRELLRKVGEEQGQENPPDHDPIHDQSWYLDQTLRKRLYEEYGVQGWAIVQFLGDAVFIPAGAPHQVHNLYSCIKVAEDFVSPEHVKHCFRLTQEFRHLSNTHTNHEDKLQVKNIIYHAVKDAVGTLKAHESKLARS
UniProt P27987: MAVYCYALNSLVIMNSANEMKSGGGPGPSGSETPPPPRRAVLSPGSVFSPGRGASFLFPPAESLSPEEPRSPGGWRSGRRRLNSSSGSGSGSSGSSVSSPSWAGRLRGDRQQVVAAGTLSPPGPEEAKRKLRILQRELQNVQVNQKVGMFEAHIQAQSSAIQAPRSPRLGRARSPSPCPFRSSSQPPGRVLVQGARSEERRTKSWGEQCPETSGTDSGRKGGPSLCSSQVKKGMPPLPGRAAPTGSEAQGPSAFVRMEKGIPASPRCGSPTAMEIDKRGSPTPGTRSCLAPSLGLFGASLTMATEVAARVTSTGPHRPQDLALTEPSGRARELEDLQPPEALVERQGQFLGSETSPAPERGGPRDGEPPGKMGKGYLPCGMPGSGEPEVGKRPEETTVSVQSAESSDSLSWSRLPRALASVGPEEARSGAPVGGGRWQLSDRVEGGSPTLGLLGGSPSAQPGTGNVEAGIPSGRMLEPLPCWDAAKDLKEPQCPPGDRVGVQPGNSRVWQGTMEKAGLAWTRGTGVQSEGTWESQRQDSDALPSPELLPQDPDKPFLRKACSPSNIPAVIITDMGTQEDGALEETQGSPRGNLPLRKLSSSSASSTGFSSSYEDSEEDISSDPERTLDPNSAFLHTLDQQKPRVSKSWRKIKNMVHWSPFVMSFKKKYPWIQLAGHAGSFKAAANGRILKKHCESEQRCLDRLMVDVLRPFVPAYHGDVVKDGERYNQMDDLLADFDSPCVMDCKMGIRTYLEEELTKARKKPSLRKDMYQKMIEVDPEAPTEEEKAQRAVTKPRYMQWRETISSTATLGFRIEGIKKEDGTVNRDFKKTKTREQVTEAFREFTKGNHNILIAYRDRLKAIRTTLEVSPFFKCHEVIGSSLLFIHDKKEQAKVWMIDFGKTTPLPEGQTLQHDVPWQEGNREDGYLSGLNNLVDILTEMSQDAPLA
UniProt O75164: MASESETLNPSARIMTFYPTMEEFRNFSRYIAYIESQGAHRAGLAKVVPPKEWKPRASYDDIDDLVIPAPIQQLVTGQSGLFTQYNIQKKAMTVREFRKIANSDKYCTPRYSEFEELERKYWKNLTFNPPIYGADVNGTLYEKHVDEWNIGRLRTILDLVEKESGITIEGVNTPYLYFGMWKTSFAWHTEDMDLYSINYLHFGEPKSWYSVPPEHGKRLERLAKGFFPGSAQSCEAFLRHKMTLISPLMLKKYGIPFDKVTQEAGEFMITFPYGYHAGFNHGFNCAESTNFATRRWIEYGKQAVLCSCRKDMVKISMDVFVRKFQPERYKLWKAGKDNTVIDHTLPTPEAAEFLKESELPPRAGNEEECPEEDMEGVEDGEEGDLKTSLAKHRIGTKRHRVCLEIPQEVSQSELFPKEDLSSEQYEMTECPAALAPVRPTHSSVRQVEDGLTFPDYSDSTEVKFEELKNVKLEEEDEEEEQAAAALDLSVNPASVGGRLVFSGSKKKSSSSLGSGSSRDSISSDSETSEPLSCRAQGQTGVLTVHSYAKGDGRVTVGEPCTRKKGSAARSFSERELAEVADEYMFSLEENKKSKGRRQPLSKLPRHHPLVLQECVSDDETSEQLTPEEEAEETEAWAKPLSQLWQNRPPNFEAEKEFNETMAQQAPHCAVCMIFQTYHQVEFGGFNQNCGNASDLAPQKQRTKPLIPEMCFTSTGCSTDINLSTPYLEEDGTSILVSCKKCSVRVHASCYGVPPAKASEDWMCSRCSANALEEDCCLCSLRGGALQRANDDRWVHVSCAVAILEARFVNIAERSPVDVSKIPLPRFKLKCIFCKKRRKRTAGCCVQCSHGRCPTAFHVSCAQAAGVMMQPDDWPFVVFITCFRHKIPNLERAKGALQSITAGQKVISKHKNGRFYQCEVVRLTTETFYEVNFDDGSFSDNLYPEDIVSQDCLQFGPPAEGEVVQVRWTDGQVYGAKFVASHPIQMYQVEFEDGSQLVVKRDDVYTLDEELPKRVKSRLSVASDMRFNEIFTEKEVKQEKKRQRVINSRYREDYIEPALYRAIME
UniProt O94819: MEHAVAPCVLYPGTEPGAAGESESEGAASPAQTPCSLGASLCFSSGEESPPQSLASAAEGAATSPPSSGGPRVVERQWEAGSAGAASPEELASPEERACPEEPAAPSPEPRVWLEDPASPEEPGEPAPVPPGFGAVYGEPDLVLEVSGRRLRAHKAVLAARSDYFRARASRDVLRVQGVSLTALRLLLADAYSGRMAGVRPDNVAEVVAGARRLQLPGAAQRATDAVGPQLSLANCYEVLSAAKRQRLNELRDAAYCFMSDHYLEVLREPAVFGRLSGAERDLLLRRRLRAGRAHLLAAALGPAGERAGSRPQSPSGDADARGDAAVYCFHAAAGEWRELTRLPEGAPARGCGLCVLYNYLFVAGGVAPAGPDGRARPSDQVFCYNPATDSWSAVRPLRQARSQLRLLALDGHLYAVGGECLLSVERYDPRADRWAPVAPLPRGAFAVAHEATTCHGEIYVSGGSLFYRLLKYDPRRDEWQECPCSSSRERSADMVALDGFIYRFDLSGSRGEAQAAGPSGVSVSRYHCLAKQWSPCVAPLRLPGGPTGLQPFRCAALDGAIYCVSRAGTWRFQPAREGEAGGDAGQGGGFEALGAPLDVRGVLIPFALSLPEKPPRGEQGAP
UniProt O76095: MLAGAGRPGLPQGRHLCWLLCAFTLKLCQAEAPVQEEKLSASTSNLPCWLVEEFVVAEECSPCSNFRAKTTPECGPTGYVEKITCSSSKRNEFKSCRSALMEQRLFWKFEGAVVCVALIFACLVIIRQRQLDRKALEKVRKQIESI
UniProt P28290: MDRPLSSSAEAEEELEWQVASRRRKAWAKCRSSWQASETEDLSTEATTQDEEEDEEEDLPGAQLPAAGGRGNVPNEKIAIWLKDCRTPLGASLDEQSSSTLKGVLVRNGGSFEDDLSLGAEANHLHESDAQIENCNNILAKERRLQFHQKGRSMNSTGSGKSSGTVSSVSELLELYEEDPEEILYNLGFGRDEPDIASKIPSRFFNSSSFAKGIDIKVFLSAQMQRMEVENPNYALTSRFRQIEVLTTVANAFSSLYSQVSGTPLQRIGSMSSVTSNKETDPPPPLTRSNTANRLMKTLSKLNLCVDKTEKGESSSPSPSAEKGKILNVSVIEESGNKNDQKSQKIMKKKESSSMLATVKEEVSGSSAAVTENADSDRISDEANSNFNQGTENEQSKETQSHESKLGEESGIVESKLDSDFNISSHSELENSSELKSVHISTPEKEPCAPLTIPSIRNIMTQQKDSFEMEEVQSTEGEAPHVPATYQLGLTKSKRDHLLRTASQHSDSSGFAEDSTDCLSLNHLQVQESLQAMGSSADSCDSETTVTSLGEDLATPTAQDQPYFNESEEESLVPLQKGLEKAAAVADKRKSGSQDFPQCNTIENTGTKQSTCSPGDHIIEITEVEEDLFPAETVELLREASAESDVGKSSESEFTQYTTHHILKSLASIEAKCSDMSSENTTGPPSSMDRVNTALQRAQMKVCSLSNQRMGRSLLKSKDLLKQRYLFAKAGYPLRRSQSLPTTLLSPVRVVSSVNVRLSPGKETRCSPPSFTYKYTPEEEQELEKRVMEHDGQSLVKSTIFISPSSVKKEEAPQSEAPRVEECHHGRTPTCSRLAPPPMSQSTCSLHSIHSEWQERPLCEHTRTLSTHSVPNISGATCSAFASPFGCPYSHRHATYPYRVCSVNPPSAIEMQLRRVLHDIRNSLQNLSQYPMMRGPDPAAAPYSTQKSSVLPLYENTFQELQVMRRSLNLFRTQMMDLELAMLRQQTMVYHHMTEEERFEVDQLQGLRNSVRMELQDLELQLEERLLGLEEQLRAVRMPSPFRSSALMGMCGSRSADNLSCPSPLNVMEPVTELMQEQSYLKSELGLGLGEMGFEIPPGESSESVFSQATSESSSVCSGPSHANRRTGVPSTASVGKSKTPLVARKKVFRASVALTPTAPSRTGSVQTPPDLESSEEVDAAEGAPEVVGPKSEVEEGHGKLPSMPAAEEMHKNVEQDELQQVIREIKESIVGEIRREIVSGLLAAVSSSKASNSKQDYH

Target | probe-labelled cysteine peptide fold change (10 µM) | probe-labelled cysteine peptide fold change (50 µM)
KDM3B_Q7LBC6_72_AMSGAVPQDLAIFVEFDGCNWK (UniProt Q7LBC6) | 0.115 | -0.11
ITPKB_P27987_873_CHEVIGSSLLFIHDKK (UniProt P27987) | -0.0355 | 0.0246
JMJD6_Q6NYC1_207_WCLFPTSTPR (UniProt Q6NYC1) | -0.0876 | 0.0631
KDM1A_O60341_360_CPLYEANGQAVPK (UniProt O60341) | 0.0216 | -0.0598
KDM5C_P41229_825_NCLSEAEACVSR (UniProt P41229) | -0.191 | 0.21
KDM2A_Q9Y2K7_463_CLVDKLESLPLHK (UniProt Q9Y2K7) | -0.129 | -0.0776
KDM3B_Q7LBC6_1045_EMCDVCETTLFNIHWVCR (UniProt Q7LBC6) | 0.283 | 0.0746
JMJD1C_Q15652_1871_CGFVVCLDCYK (UniProt Q15652) | 0.135 | 0.228
KDM4C_Q9H3R0_14_MEVAEVESPLNPSCK (UniProt Q9H3R0) | 0.302 | 0.223
KDM4A_O75164_763_ASEDWMCSR (UniProt O75164) | 0.118 | 0.182
KDM3A_Q9Y4C1_225_TLQVNCEEIPALK (UniProt Q9Y4C1) | -0.195 | -0.31
KBTBD11_O94819_483+485_RDEWQECPCSSSR (UniProt O94819) | 0.153 | -0.0495
JTB_O76095_85_ITCSSSK (UniProt O76095) | -0.0396 | -0.183
ITPR1_Q14643_2224_TMEQIVFPVPSICEFLTK (UniProt Q14643) | 0.18 | 0.0354
JMJD6_Q6NYC1_207_RWCLFPTSTPR (UniProt Q6NYC1) | -0.0707 | 0.15
KDM5B_Q9UGL1_1221_IWLCPHCR (UniProt Q9UGL1) | -0.112 | -0.0757
KDM4A_O75164_560_VTVGEPCTR (UniProt O75164) | 0.0439 | -0.158
ITPR2_Q14571_2087_NAYNQGLECDHGDDEGGDDGVSPK (UniProt Q14571) | -0.0694 | -0.0836
ITPRID2_P28290_878_TLSTHSVPNISGATCSAFASPFGCPYSHR (UniProt P28290) | 0.109 | -0.235
KIDINS220_Q9ULH0_412_AGETPYNIDCSHQK (UniProt Q9ULH0) | -0.11 | -0.00859
KIAA1109_Q2LD37_3091_CVAEVGSFEHNLTTDLLNHLVFVQK (UniProt Q2LD37) | 0.118 | 0.0787
